In PubChem BioAssay AID1688 (National Center for Advancing Translational Sciences (NCATS), 2009):
Hit rate of the full screen: of about 220,000 compounds, about 2,400 (1.1%) were called active. The inconclusive results got no clear call from the source; some entries with a clear call stand among them for comparison. Calls follow the shape of the dose curve; as a rule, active = well fitted inhibition curve with a large enough effect; inconclusive = small, poorly fitted or top-dose-only effect, or effect the other way; inactive = no such curve, though single readings can be large or run the other way. Potencies of inconclusive entries are doubtful fits and often do not repeat.

Test: qHTS Multiplex Assay to Identify Dual Action Probes in a Cell Model of Huntington: Aggregate Formation (GFP); also: nearly all actives have a fitted effect of over 60% in size
Conditions: PC12 HttQ103-GFP aggregates, Acumen cytometry, 40 h; activity change, negative = inhibition: at 46.1 µM (top of the series) unless noted
Summary of the method: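 PC12/HTTQ103-GFP, ecdysone-inducible; teb 100 nM; cpd qHTS titration; GFP aggregates read on laser cytometer, Ex 488/Em 500-530 nm.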
% is scaled to controls: 0 for no effect and ±100 for the full control effect; potency is read from the fitted curve at half-maximal effect.

SMILES | Potency | activity change, negative = inhibition
COc1ccc2[nH]c(=O)c3c(c2c1)OC(C)(C)C=C3 | inconclusive: 2.82 µM [inhibitor, full curve] | –
O=C(Nc1ccncc1)c1ccccc1F | inconclusive: 11.2 µM [inhibitor, partial curve] | –
O=C(NC(=S)Nc1ccc(N2CCN(C(=O)c3ccccc3)CC2)cc1)c1cccs1 | inconclusive: 25.1 µM [inhibitor, single point] | –
COc1ccc(/C=N/NC(=O)C(O)(c2ccccc2)c2ccccc2)cc1OC | inconclusive: 3.16 µM [inhibitor, single point] | –
O=C(O)Cc1cn(Cc2ccc(F)cc2)c2ccccc12 | – | inactive: -2.91%
O=C1COc2ccc(C(=O)COC(=O)Cn3cnc4ccccc43)cc2N1 | – | inactive: -3.62%
Cc1cccc(Nc2nc(N)c([N+](=O)[O-])c(N3CCN(C)CC3)n2)c1 | inconclusive: 25.1 µM [inhibitor, single point] | –
COc1ccc(C(=O)Nc2nc3ccccc3s2)cc1OC | inconclusive: 5.01 µM [activator, single point] | –
COCCNc1nnnc2c1sc1nc(N3CCOCC3)c3c(c12)CCCC3 | inconclusive: 0.562 µM [activator, full curve, poor fit] | –
CCCC(=O)NNC(=O)CCC(=O)Nc1ccccc1Cl | inconclusive: 5.62 µM [inhibitor, single point] | –
CCOC(=O)c1ccc(Oc2nc(NC)nc(Nc3ccccc3)n2)cc1 | inconclusive: 0.891 µM [activator, partial curve, poor fit] | –
Cc1cccc(CSC(Nc2ccc(F)cc2)=C(C#N)C#N)c1 | active: 4.47 µM | –
CC(=O)Oc1ccc(N2C(=O)C3C4C=CC(CO)(O4)C3C2=O)cc1 (stereo unspecified) | inconclusive: 35.5 µM [inhibitor, single point] | –
COCCN(C(=O)Cc1cccs1)C(C(=O)NCc1ccc(OC)cc1)c1ccc(C)cc1 (stereo unspecified) | inconclusive: 35.5 µM [inhibitor, single point] | –
Cc1ccc(CSc2nnc(-c3cccc(S(=O)(=O)N4CCOCC4)c3)n2C2CCCC2)cc1 | inconclusive: 5.62 µM [inhibitor, single point] | –
O=C(C1CCN(C2CCN(Cc3ccc4c(c3)CCO4)CC2)CC1)N1CCOCC1 | – | inactive: 3.38%
N#Cc1cnn2c1nc(N1CCOCC1)c1ccccc12 | inconclusive: 22.4 µM [inhibitor, single point] | –
Cc1ccc(Cl)cc1N1CCN(C(=O)COc2ccc3c(c2)CCC3)CC1 | inconclusive: 5.62 µM [inhibitor, partial curve, poor fit] | –
C/C(=N\N1C(=O)c2ccccc2NC1c1ccco1)c1ccccc1O (stereo unspecified) | active: 7.08 µM | –
O=C(N/N=C/c1cc(Br)ccc1O)c1cccc(N2CCCC2=O)c1 | active: 2.24 µM | –
C=CCn1c(=O)c(C(=O)Nc2cccnc2)c(O)c2ccccc21 | inconclusive: 15.8 µM [inhibitor, single point] | –
COc1ccc(CCNC(=O)Cn2c(=O)cnc3ccccc32)cc1 | inconclusive: 35.5 µM [activator, single point] | –
O=C(Nn1c(-c2ccc(Br)cc2)nc2ccccc2c1=O)c1ccncc1 | – | inactive: 4.6%

SMILES | Potency | activity change, negative = inhibition
CSc1nc(Cc2ccc(Cl)cc2)nc2ccccc12 | – | inactive: 0.934%
CC(C(=O)Nc1sc2c(c1C(=O)NCC1CCCO1)CCC2)N1C(=O)c2ccccc2C1=O (stereo unspecified) | inconclusive: 5.62 µM [inhibitor, single point] | –
COc1ccc(NC(=S)Nc2ccc3nc(C)c(C)nc3c2)cc1 | – | inactive: -1.71%
c1ccc(-c2cc(CSc3nc4ccccc4[nH]3)on2)cc1 | inconclusive: 35.5 µM [inhibitor, single point] | –
Cc1[nH]c2ccccc2c1/C=N/NC(=O)CNC(=O)c1ccc2c(c1)OCO2 | inconclusive: 3.98 µM [activator, partial curve] | –
Cc1cc(C)c2c(N)c(S(=O)(=O)c3ccccc3)sc2n1 | inconclusive: 15.8 µM [inhibitor, single point] | –
O=C(c1cc2sccc2n1Cc1ccccc1)N1CCN(c2nc3ccccc3s2)CC1 | active: 7.94 µM | –
O=C(Nc1ccc([N+](=O)[O-])cc1)Nc1nc(-c2ccc(Cl)s2)cs1 | inconclusive: 2.82 µM [inhibitor, single point] | –
O=C(CNC(=O)C1COc2ccccc2O1)N/N=C/c1ccc(O)cc1O (stereo unspecified) | inconclusive: 11.2 µM [inhibitor, partial curve] | –
CN1C(=O)/C(=N/OC(=O)c2ccccc2)c2ccccc21 | – | inactive: -0.917%
Nn1c(Cc2cccc3ccccc23)nnc1SCc1ccc(Cl)c(Cl)c1 | – | inactive: -9.3%
COc1cccc(/C=N/NC(=O)C[n+]2ccccc2)c1O | – | inactive: 10.9%
CCC(Sc1nc2ccccc2c2nc3ccccc3n12)C(=O)NCc1ccco1 (stereo unspecified) | – | inactive: -1.42% [at 1.84 µM]
C=CCNC(=S)NNC(=O)c1ccc(OCC(C)C)cc1 | inconclusive: 12.6 µM [inhibitor, single point] | –
COc1ccc(NS(=O)(=O)c2ccc(NC(=S)NC(=O)CC(C)C)cc2)cc1 | active: 22.4 µM | –
O=C(c1ccccc1Cl)N1CCc2ccccc2C1 | inconclusive: 5.62 µM [activator, single point] | –
CC1=C(C(=O)OCc2ccc3c(c2)OCO3)C(c2ccccc2)NC(=O)N1 (stereo unspecified) | active: 2.82 µM | –
CN(C)c1ccc(NC2=C([N+](=O)[O-])CS(=O)(=O)C2)cc1 | inconclusive: 11.2 µM [activator, partial curve] | –
O=C(C(Cl)Cl)N1c2ccccc2OCC1c1ccccc1 (stereo unspecified) | inconclusive: 14.1 µM [inhibitor, partial curve] | –
COc1cc2c(C#N)c(N3CCCCC3)nc(N)c2c(N)n1 | active: 11.2 µM | –
O=C(COc1ccc(Cl)cc1)NCc1nnc(SCC(=O)N2CCCc3ccccc32)o1 | – | inactive: -10.9%
CCOC(=O)N1CCN(C(=O)CSCC(=O)Nc2nc(-c3ccc(C)cc3)cs2)CC1 | inconclusive: 35.5 µM [inhibitor, single point] | –
Cc1noc(NS(=O)(=O)c2ccc(NC(=O)CCC3CCCC3)cc2)c1C | inconclusive: 35.5 µM [activator, single point] | –

Complete entries, looked up by structure.
CC(=O)Oc1ccc(N2C(=O)C3C4C=CC(CO)(O4)C3C2=O)cc1 (stereo unspecified) is entered as Potency: inconclusive: 35.5 µM [inhibitor, single point]
Cc1noc(NS(=O)(=O)c2ccc(NC(=O)CCC3CCCC3)cc2)c1C is entered as Potency: inconclusive: 35.5 µM [activator, single point]
COCCNc1nnnc2c1sc1nc(N3CCOCC3)c3c(c12)CCCC3 is entered as Potency: inconclusive: 0.562 µM [activator, full curve, poor fit]
